Laboratory results: PubChem BioAssay AID1259424 (University of Nebraska Medical Center, 2018)

Screen: 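Seek colon cancer survival genes behaving like KSR1, using a six-gene signature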 (primary screen)
Cells: human HCT116 colon cancer cells
Reagents: siRNA pool against human genes, 50 nM
Detection: 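Six signature mRNAs by branched-DNA multiplex assay, scaled to two housekeeping genes and non-targeting median, log2; matched to mean KSR1 knockdown profile by Pearson correlation and euclidean distance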
Reading the numbers: mean correlation with KSR1 profile: higher = expression change more like KSR1 knockdown
The whole screen tested about 14,000 reagents; below is a part drawn at random. 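Higher correlation or smaller distance means closer resemblance to KSR1 loss; control wells, including KSR1 knockdowns, recur on many plates.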 Further read-outs or replicates are left out here. The record does not give: the time to read-out.

Against CYP4F11, the entry reads mean correlation with KSR1 profile -0.535.
Against SEMA3G the deposit lists mean correlation with KSR1 profile -0.624.
PCDHGB6 scored mean correlation with KSR1 profile -0.378.
With knock-down of GRIP1, the record shows mean correlation with KSR1 profile 0.31.
Knock-down of CPZ came out at: mean correlation with KSR1 profile -0.583.
Silencing of ZKSCAN3 came out at: mean correlation with KSR1 profile 0.73.
Silencing of FHL5 came out at: mean correlation with KSR1 profile 0.198.
For PCSK2 the deposit lists mean correlation with KSR1 profile 0.423.
After knock-down of LINGO1, the record shows mean correlation with KSR1 profile 0.744.
For MOSPD3, the values are mean correlation with KSR1 profile -0.359.
After knock-down of DYM, the screen gave mean correlation with KSR1 profile 0.876.
MTREX showed mean correlation with KSR1 profile -0.395.

A stretch taken from the entries so far, as a working copy:
CYP4F11: mean correlation with KSR1 profile = -0.535
SEMA3G: mean correlation with KSR1 profile = -0.624
